# The other results are listed elsewhere or left out.
# B1: PX9937I-bfa-538-26-538 (Bacteroides fragilis) (protein)
# chain: DKLDLSPIDYYGSGSYWKTEAQATAYIDGIHKHLRDAAWQHTITFGELRGGRFITGASSDGMGVSNGDIILQNFDETHTGVSKFGDLFGRITNLNLFIARVTDATYLSDEMKNFYLGEVYGLRAFYYFDLYRIYGGVPLRLTADVVEGVIDPNKLYMARSTPKEVMTQIKSDLNKSMEYFGNMNDFDPYKRGKKVYWSKAATECLMGEVYLWTSKVTTGDDVANPADLTIAKTHLESVLNNYNLKMLDDFSQVFNAKNKANDEIIFAIRFLEGEATNSNGTFTYNVGTGSTKNRYQANGEVFGDALDIQNTGNQTYEYNKAVYQNFDDADTRKEATFIASYNKDGKTGELSLYGTHVRKNIGYVNAQGARVYCGDYIFYRLPWVYLTLAEIANMEGDNAAVAKYINLVRKRAYGNAWDETLYAYPETADFTTNELAILHEKDKEFIQEGQRWWDLRRMTLTKGGTPLVFCKEGSLLGDAPILNKSTEAHKLLWPIEKTMLNKDPALEQTPGYK
# Experiments:
# Test in all cases: glycan array binding signal (z-score within array); higher = stronger binding
# Details in all cases: glycan notation: IUPAC condensed, linker removed
# [1] = target: Neu5Ac(a2-3)Gal(b1-4)GlcNAc(b1-3)Gal(b1-4)GlcNAc(b1-3)Gal(b1-4)GlcNAc
# Outline: (§1)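 From the Consortium for Functional Glycomics database, 3228 arrays were curated, keeping only those whose protein sequence was available. Binding is given as a within-array Z-score averaged across arrays sharing a protein sequence and across linkers. Negative Z-scores can be read as non-binding.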
# [2] = target: Neu5Ac(a2-3)Gal(b1-4)GlcNAc(b1-3)Gal(b1-4)GlcNAc(b1-3)Gal(b1-4)GlcNAc(b1-2)Man(a1-3)[Neu5Ac(a2-3)Gal(b1-4)GlcNAc(b1-3)Gal(b1-4)GlcNAc(b1-3)Gal(b1-4)GlcNAc(b1-2)Man(a1-6)]GalNAc
# Outline: as §1
# [3] = target: Neu5Ac(a2-3)Gal(b1-4)GlcNAc(b1-3)Gal(b1-4)GlcNAc(b1-3)GalNAc
# Outline: as §1
# [4] = target: Neu5Ac(a2-3)Gal(b1-4)GlcNAc(b1-3)Gal(b1-4)GlcNAc(b1-3)[Neu5Ac(a2-3)Gal(b1-4)GlcNAc(b1-3)Gal(b1-4)GlcNAc(b1-6)]GalNAc
# Outline: as §1
# [5] = target: Neu5Ac(a2-3)Gal(b1-4)GlcNAc(b1-3)Gal(b1-4)GlcNAc(b1-6)[Gal(b1-3)]GalNAc
# Outline: as §1
# [6] = target: Neu5Ac(a2-3)Gal(b1-4)GlcNAc(b1-3)Gal(b1-4)[Fuc(a1-3)]GlcNAc
# Outline: as §1
# [7] = target: Neu5Ac(a2-3)Gal(b1-4)GlcNAc(b1-3)GalNAc
# Outline: as §1
# [8] = target: Neu5Ac(a2-3)Gal(b1-4)GlcNAc(b1-3)[Neu5Ac(a2-3)Gal(b1-4)GlcNAc(b1-6)]GalNAc
# Outline: as §1
# [9] = target: Neu5Ac(a2-3)Gal(b1-4)GlcNAc(b1-6)GalNAc
# Outline: as §1
# [10] = target: Neu5Ac(a2-3)Gal(b1-4)GlcNAc(b1-6)[Gal(b1-3)]GalNAc
# Outline: as §1
# [11] = target: Neu5Ac(a2-3)Gal(b1-4)GlcNAc(b1-6)[Neu5Ac(a2-3)Gal(b1-3)]GalNAc
# Outline: as §1
# [12] = target: Neu5Ac(a2-3)Gal(b1-4)GlcNAc6S
# Outline: as §1
# [13] = target: Neu5Ac(a2-3)Gal(b1-4)[Fuc(a1-3)]GlcNAc
# Outline: as §1
# [14] = target: Neu5Ac(a2-3)Gal(b1-4)[Fuc(a1-3)]GlcNAc(b1-2)Man
# Outline: as §1
# [15] = target: Neu5Ac(a2-3)Gal(b1-4)[Fuc(a1-3)]GlcNAc(b1-3)Gal
# Outline: as §1
# [16] = target: Neu5Ac(a2-3)Gal(b1-4)[Fuc(a1-3)]GlcNAc(b1-3)Gal(b1-4)GlcNAc
# Outline: as §1
# [17] = target: Neu5Ac(a2-3)Gal(b1-4)[Fuc(a1-3)]GlcNAc(b1-3)Gal(b1-4)[Fuc(a1-3)]GlcNAc(b1-3)Gal(b1-4)[Fuc(a1-3)]GlcNAc
# Outline: as §1
# [18] = target: Neu5Ac(a2-3)Gal(b1-4)[Fuc(a1-3)]GlcNAc(b1-3)GalNAc
# Outline: as §1
# [19] = target: Neu5Ac(a2-3)Gal(b1-4)[Fuc(a1-3)]GlcNAc(b1-6)[Gal(b1-3)]GalNAc
# Outline: as §1
# [20] = target: Neu5Ac(a2-3)Gal(b1-4)[Fuc(a1-3)]GlcNAc(b1-6)[Neu5Ac(a2-3)Gal(b1-3)]GalNAc
# Outline: as §1
# [21] = target: Neu5Ac(a2-3)Gal(b1-4)[Fuc(a1-3)]GlcNAc6S
# Outline: as §1
# [22] = target: Neu5Ac(a2-3)Gal6S(b1-4)GlcNAc
# Outline: as §1
# [23] = target: Neu5Ac(a2-3)Gal6S(b1-4)[Fuc(a1-3)]GlcNAc
# Outline: as §1
# Neu5Ac(a2-3)GalNAc = target: Neu5Ac(a2-3)GalNAc
# Outline: as §1
# [24] = target: Neu5Ac(a2-3)GalNAc(b1-4)GlcNAc
# Outline: as §1
# [25] = target: Neu5Ac(a2-3)[GalNAc(b1-4)]Gal(b1-4)Glc
# Outline: as §1
# [26] = target: Neu5Ac(a2-3)[GalNAc(b1-4)]Gal(b1-4)GlcNAc
# Outline: as §1
# [27] = target: Neu5Ac(a2-3)[GalNAc(b1-4)]Gal(b1-4)GlcNAc(b1-3)GalNAc
# Outline: as §1
# [28] = target: Neu5Ac(a2-3)[Neu5Ac(a2-6)]GalNAc
# Outline: as §1
# Neu5Ac(a2-6)Gal = target: Neu5Ac(a2-6)Gal
# Outline: as §1
# [29] = target: Neu5Ac(a2-6)Gal(b1-3)GlcNAc(b1-3)[Gal(b1-4)GlcNAc(b1-6)]Gal(b1-4)Glc
# Outline: as §1
# Neu5Ac(a2-6)Gal(b1-4)Glc = target: Neu5Ac(a2-6)Gal(b1-4)Glc
# Outline: as §1
# [30] = target: Neu5Ac(a2-6)Gal(b1-4)GlcNAc
# Outline: as §1
# [31] = target: Neu5Ac(a2-6)Gal(b1-4)GlcNAc(b1-2)Man
# Outline: as §1
# [32] = target: Neu5Ac(a2-6)Gal(b1-4)GlcNAc(b1-2)Man(a1-3)Man(b1-4)GlcNAc(b1-4)GlcNAc
# Outline: as §1
# [33] = target: Neu5Ac(a2-6)Gal(b1-4)GlcNAc(b1-2)Man(a1-3)[Gal(b1-4)GlcNAc(b1-2)Man(a1-6)]Man(b1-4)GlcNAc(b1-4)GlcNAc
# Outline: as §1
# [34] = target: Neu5Ac(a2-6)Gal(b1-4)GlcNAc(b1-2)Man(a1-3)[GlcNAc(b1-2)Man(a1-6)]Man(b1-4)GlcNAc(b1-4)GlcNAc
# Outline: as §1
# [35] = target: Neu5Ac(a2-6)Gal(b1-4)GlcNAc(b1-2)Man(a1-3)[GlcNAc(b1-4)][Neu5Ac(a2-6)Gal(b1-4)GlcNAc(b1-2)Man(a1-6)]Man(b1-4)GlcNAc(b1-4)GlcNAc
# Outline: as §1
binder,measurement,setting,value
B1,glycan array binding signal (z-score),[1],1.3
same,glycan array binding signal (z-score),[2],1.29
same,glycan array binding signal (z-score),[3],0.409
same,glycan array binding signal (z-score),[4],-0.013
same,glycan array binding signal (z-score),[5],-0.608
same,glycan array binding signal (z-score),[6],-0.193
same,glycan array binding signal (z-score),[7],-0.275
same,glycan array binding signal (z-score),[8],-1.13
same,glycan array binding signal (z-score),[9],-0.335
same,glycan array binding signal (z-score),[10],0.676
same,glycan array binding signal (z-score),[11],-0.395
same,glycan array binding signal (z-score),[12],0.675
same,glycan array binding signal (z-score),[13],-0.564
same,glycan array binding signal (z-score),[14],0.469
same,glycan array binding signal (z-score),[15],-0.284
same,glycan array binding signal (z-score),[16],1.95
same,glycan array binding signal (z-score),[17],0.037
same,glycan array binding signal (z-score),[18],-0.002
same,glycan array binding signal (z-score),[19],1.12
same,glycan array binding signal (z-score),[20],0.372
same,glycan array binding signal (z-score),[21],-0.329
same,glycan array binding signal (z-score),[22],0.352
same,glycan array binding signal (z-score),[23],-1.35
same,glycan array binding signal (z-score),Neu5Ac(a2-3)GalNAc,-0.079
same,glycan array binding signal (z-score),[24],-0.41
same,glycan array binding signal (z-score),[25],0.204
same,glycan array binding signal (z-score),[26],-0.36
same,glycan array binding signal (z-score),[27],-0.491
same,glycan array binding signal (z-score),[28],-0.691
same,glycan array binding signal (z-score),Neu5Ac(a2-6)Gal,0.948
same,glycan array binding signal (z-score),[29],2.05
same,glycan array binding signal (z-score),Neu5Ac(a2-6)Gal(b1-4)Glc,-0.274
same,glycan array binding signal (z-score),[30],-0.419
same,glycan array binding signal (z-score),[31],-1.26
same,glycan array binding signal (z-score),[32],3.63
same,glycan array binding signal (z-score),[33],-0.747
same,glycan array binding signal (z-score),[34],-0.591
same,glycan array binding signal (z-score),[35],-0.118

# Three successive entries out of the list so far, quoted:
binder,measurement,setting,value
B1,glycan array binding signal (z-score),[9],-0.335
same,glycan array binding signal (z-score),[10],0.676
same,glycan array binding signal (z-score),[11],-0.395
